# Results reported in paper PMC11554844, “BEACH domain proteins function as cargo-sorting adaptors in secretory and endocytic pathways” (The Journal of Cell Biology, 2024).
# The chains behind the UniProt entries cited, without tags or fusion partners. Where a name states a change or a piece, a line headed by the entry shows the natural chain unless it says otherwise.
# UniProt P16410: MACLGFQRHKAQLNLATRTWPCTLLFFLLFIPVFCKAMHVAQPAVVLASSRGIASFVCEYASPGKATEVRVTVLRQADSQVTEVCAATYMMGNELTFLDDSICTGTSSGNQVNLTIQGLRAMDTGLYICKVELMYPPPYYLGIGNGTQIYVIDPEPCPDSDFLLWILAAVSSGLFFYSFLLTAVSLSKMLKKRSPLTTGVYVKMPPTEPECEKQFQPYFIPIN
# Results are given in words; binding and its absence hold for the method and conditions named. Binding calls can cover weak binding; strength is not graded here.
# Molecular target: GST-CTLA4 (201–215) (human) (UniProt P16410)
# Experiment: pull-down; GST-CTLA4 (201–215) immobilised on glutathione-sepharose beads, incubated overnight at 4°C with purified protein (1 µg MBP fusion, 1 µg NBEAL2, 0.2 µg LRBA, or purified 3xFlag-EGFP-NBEAL2 fragment); washed six times in 50 mM Tris-HCl pH 7.4, 150 mM NaCl, 1% Triton X-100; detected by blot (anti-NBEAL2, anti-LRBA, anti-Flag, anti-MBP); both purified
row,binding,Substance
1,binds,PH-BEACH domain of LRBA fused to MBP (from UniProt P50851-1) (domain or fragment)
2,binds,PH-BEACH domain of NBEAL1 fused to MBP (from UniProt Q6ZS30-2) (domain or fragment)
3,binds,PH-BEACH domain of NBEAL2 fused to MBP (from UniProt Q6ZNJ1-1) (domain or fragment)
